Test results from patent EP1243581A1, “Pyridinium compounds useful for the treatment of AGE-related diseases” (Torrent Pharmaceuticals Ltd, priority 2001, dated 2002).
Some of these results come from one statement about several compounds together. At least one compound was matched to its structure with a doubt left.

Chains of the proteins cited; added tags and fusions are not shown. Residues count along the entry.
UniProt P02769, 25-607: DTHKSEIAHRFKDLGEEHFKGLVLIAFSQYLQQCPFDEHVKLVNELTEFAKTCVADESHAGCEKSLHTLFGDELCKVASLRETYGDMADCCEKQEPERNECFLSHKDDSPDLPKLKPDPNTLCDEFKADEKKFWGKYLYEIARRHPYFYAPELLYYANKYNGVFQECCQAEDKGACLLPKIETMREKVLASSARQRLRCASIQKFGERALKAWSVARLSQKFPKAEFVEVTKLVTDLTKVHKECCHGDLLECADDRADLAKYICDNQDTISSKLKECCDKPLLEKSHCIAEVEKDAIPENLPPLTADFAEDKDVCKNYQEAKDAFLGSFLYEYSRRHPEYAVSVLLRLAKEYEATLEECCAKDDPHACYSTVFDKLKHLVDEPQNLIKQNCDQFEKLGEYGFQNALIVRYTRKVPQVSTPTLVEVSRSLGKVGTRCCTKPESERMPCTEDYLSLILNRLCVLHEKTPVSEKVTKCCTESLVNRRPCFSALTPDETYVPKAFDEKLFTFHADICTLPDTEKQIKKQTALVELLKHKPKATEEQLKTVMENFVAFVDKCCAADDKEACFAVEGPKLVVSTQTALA

What follows are compounds tested against T1, AGE-BSA (Bos taurus, UniProt P02769) (assay: In-vitro screening for AGE-breaking activity (ELISA on 16 weeks AGE-BSA)). Details: comparison in words, from Table 2.
T1 construct: Bovine serum albumin (fraction V) (BSA); from tissue; host or cells: bovine serum (fraction V albumin)
Assay type: biochemical, bovine

Row | Compound | AGE breaking activity compared to PTB | potency compared to PTB
1 | O=C(C[n+]1cccc(C(=O)NCCOC(=O)c2ccccc2)c1)Nc1ccccc1.[Cl-] [Compound 5, 1-(2-phenylamino-2-oxoethyl)-3-((benzoyloxy)ethylaminocarbonyl) pyridinium chloride] | superior AGE breaking activity compared to PTB | –
2 | COCCNC(=O)c1cc(Br)c[n+](CC(=O)c2cccs2)c1 [Compound 29, 1-(2-thien-2'-yl-2-oxoethyl)-3-((2-methoxyethyl)aminocarbonyl)-5-bromo pyridinium chloride] | superior AGE breaking activity compared to PTB | –
3 | Cc1ccc(C(=O)NNC(=O)c2ccc[n+](CC(=O)c3cccs3)c2)c[n+]1CC(=O)c1cccs1 [Compound 31, 1-[1-(2-thien-2'-yl-2-oxoethyl)-6-methyl-3-carbonylpyridinium]-2-[1-(2-Thien-2'-yl-2-oxoethyl)-3-carbonylpyridinium] hydrazine dichloride] | superior AGE breaking activity compared to PTB | significantly much higher
4 | CC(C)S(=O)(=O)NNC(=O)c1ccc[n+](CC(=O)c2cccs2)c1 [Compound 32, 1-(2-thien-2'-yl-2-oxoethyl)-3-(isopropylsulfonyl hydrazinocarbonyl) pyridinium bromide] | superior AGE breaking activity compared to PTB | –
5 | CS(=O)(=O)NNC(=O)c1cc(Br)c[n+](CC(=O)c2cccs2)c1 [Compound 35, 1-(2-thien-2'-yl-2-oxoethyl)-3-(methanesulfonyl hydrazinocarbonyl)-5-bromo pyridinium bromide] | superior AGE breaking activity compared to PTB | –
6 | CCOC(=O)NNC(=O)c1ccc[n+](CC(=O)c2cccs2)c1 [Compound 36, 1-(2-thien-2'-yl-2-oxoethyl)-3-(ethoxycarbonyl hydrazinocarbonyl) pyridinium bromide] | superior AGE breaking activity compared to PTB | –
7 | Cc1ccc(C(=O)NNS(C)(=O)=O)c[n+]1CC(=O)c1cccs1 [Compound 39, 1-(2-thien-2'-yl-2-oxoethyl)-3-(methanesulfonyl hydrazinocarbonyl) -6-methyl pyridinium bromide] | superior AGE breaking activity compared to PTB | significantly much higher
8 | Cc1ccc(C(=O)C[n+]2cccc(C(=O)NNC(=O)c3ccc[n+](CC(=O)c4ccc(C)s4)c3)c2)s1 [Compound 40, N,N'-bis[3-carbonyl-1-(2-(5-methyl-thien-2-yl)-2-oxoethyl)pyridinium] hydrazine dichloride] | superior AGE breaking activity compared to PTB | significantly much higher
9 | NC(=O)c1cc(C(=O)NNC(=O)c2ccc[n+](CC(=O)c3cccs3)c2)c[n+](CC(=O)c2cccs2)c1 [Compound 42, 1-[1-(2-thien-2'-yl-2-oxoethyl)-5-aminocarbonyl-3-carbonylpyridinium]-2-[1-(2-Thien-2'-yl-2-oxoethyl)-3-carbonylpyridinium] hydrazine dichloride] | superior AGE breaking activity compared to PTB | significantly much higher
10 | O=C(NNC(=O)c1ccc[n+](CC(=O)c2ccc(Cl)s2)c1)c1ccc[n+](CC(=O)c2ccc(Cl)s2)c1 [Compound 44, N,N'-bis[3-carbonyl-1-(2-(5-chloro-thien-2-yl)-2-oxoethyl)pyridinium] hydrazine dichloride] | superior AGE breaking activity compared to PTB | significantly much higher
11 | O=C(C[n+]1cccc(C(=O)NNc2ccccc2)c1)Nc1ccccc1.[Cl-] [Compound 47, 1-(2-phenylamino-2-oxoethyl)-3-(phenyl hydrazinocarbonyl) pyridinium chloride] | superior AGE breaking activity compared to PTB | significantly much higher
12 | CS(=O)(=O)NNC(=O)c1ccc[n+](CC(=O)c2ccc([N+](=O)[O-])s2)c1 [Compound 49, 1-2-(5-nitro-thien-2-yl)-2-oxoethyl)-3-(methanesulfonyl hydrazino carbonyl) pyridinium chloride] | superior AGE breaking activity compared to PTB | significantly much higher
13 | O=C(NNS(=O)(=O)C(F)(F)F)c1ccc[n+](CC(=O)c2cccs2)c1 [Compound 50, 1-(2-thien-2'-yl-2-oxoethyl)-3-(trifluoromethanesulfonyl hydrazinocarbonyl) - pyridinium bromide] | superior AGE breaking activity compared to PTB | significantly much higher
